# Measured values as given in the supplement of paper PMC6411743.
# Sequences of proteins named here, by UniProt entry; tags and fusion partners are left off. A change or cut given only in a name is not applied to a line headed by its entry.
# UniProt O75369, whole entry: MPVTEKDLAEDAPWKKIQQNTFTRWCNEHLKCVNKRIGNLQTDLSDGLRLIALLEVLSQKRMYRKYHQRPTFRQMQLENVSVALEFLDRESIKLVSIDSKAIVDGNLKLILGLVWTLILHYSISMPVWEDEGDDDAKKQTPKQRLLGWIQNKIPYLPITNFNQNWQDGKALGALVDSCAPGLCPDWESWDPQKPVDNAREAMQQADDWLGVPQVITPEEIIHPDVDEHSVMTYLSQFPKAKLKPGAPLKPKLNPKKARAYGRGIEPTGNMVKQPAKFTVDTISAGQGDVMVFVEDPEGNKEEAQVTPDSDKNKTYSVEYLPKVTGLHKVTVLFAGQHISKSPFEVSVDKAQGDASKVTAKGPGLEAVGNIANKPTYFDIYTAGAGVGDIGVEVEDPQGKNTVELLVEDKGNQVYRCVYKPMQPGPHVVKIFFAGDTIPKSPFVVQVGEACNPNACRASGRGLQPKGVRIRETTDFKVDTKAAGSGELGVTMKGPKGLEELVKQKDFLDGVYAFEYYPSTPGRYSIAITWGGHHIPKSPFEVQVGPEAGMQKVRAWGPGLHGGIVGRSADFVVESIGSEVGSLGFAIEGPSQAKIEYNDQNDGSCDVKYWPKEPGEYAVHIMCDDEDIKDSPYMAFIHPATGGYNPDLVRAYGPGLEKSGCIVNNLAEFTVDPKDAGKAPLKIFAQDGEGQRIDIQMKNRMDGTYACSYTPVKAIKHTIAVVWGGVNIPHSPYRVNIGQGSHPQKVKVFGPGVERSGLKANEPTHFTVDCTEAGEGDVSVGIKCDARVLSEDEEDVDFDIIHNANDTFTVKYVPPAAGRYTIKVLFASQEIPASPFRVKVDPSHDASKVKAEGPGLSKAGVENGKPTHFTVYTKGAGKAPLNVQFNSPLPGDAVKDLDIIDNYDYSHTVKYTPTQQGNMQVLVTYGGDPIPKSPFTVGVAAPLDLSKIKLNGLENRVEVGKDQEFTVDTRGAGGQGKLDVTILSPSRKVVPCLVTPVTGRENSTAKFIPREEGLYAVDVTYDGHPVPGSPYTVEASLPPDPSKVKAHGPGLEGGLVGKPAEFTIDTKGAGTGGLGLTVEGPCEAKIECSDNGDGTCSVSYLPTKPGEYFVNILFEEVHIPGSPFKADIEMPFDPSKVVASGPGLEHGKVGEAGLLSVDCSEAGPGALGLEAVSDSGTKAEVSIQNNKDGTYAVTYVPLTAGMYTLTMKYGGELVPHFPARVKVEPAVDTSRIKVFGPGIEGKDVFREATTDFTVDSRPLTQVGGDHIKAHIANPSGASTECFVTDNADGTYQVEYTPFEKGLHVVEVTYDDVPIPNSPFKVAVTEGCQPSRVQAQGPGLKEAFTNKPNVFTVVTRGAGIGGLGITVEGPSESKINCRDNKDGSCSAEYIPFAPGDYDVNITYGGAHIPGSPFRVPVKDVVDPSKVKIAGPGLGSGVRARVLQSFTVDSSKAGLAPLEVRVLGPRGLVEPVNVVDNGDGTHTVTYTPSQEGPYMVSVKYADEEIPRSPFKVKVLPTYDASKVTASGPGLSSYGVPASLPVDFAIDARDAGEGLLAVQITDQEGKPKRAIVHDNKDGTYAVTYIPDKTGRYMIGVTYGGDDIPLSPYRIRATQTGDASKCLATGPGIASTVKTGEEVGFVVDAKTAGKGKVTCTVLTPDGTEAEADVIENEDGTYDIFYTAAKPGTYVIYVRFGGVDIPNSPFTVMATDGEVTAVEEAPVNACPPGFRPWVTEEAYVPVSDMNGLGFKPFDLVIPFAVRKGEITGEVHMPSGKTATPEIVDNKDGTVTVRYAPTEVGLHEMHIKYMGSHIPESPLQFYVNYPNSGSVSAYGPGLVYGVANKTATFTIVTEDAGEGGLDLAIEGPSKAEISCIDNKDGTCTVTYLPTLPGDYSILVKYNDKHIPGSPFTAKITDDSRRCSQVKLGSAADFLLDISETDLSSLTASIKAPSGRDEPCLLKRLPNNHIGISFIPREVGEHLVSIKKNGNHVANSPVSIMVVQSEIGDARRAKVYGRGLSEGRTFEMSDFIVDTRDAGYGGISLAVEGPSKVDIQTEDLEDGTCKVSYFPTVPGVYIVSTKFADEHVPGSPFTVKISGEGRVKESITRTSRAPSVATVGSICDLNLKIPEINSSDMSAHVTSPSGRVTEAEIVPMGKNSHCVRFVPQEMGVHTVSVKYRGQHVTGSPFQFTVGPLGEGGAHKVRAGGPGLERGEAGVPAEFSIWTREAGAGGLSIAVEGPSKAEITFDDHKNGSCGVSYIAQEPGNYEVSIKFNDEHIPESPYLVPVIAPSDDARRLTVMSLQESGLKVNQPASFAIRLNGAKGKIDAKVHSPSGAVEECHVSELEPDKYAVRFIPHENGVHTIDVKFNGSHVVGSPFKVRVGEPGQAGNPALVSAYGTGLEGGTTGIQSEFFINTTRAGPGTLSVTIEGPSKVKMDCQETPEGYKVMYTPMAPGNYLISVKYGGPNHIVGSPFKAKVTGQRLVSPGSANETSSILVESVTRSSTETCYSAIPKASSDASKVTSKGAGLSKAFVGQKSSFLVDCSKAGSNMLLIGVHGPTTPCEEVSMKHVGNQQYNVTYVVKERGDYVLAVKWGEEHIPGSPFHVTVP
# UniProt O95149, whole entry: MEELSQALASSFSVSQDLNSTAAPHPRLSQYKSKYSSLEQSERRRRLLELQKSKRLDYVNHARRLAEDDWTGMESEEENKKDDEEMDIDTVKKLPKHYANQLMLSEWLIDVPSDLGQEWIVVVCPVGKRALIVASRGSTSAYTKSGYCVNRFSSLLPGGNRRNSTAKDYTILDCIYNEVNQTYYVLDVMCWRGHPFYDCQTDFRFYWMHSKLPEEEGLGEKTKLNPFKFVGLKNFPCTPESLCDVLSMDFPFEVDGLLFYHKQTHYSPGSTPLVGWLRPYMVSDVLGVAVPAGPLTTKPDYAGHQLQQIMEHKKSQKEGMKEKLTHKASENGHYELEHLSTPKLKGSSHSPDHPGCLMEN
# UniProt O94901, whole entry: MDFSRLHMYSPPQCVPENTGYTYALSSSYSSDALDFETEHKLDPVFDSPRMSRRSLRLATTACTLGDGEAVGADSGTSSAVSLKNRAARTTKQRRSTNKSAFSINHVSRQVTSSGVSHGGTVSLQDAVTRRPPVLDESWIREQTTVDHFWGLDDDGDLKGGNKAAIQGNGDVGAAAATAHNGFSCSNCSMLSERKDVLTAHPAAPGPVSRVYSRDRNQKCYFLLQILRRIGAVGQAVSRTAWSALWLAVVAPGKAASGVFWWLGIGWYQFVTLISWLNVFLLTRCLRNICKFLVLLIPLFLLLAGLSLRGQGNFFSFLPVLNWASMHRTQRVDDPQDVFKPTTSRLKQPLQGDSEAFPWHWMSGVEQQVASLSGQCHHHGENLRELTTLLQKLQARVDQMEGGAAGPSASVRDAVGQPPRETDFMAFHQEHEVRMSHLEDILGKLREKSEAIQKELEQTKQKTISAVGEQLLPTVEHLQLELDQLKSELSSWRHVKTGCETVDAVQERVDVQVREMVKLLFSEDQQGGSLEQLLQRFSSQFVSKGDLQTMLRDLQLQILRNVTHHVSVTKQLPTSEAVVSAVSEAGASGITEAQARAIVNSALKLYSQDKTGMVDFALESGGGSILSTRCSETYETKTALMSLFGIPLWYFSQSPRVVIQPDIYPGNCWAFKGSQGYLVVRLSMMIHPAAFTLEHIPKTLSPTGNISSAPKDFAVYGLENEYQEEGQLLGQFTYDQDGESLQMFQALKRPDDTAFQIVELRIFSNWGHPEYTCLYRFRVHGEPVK
# UniProt O75182: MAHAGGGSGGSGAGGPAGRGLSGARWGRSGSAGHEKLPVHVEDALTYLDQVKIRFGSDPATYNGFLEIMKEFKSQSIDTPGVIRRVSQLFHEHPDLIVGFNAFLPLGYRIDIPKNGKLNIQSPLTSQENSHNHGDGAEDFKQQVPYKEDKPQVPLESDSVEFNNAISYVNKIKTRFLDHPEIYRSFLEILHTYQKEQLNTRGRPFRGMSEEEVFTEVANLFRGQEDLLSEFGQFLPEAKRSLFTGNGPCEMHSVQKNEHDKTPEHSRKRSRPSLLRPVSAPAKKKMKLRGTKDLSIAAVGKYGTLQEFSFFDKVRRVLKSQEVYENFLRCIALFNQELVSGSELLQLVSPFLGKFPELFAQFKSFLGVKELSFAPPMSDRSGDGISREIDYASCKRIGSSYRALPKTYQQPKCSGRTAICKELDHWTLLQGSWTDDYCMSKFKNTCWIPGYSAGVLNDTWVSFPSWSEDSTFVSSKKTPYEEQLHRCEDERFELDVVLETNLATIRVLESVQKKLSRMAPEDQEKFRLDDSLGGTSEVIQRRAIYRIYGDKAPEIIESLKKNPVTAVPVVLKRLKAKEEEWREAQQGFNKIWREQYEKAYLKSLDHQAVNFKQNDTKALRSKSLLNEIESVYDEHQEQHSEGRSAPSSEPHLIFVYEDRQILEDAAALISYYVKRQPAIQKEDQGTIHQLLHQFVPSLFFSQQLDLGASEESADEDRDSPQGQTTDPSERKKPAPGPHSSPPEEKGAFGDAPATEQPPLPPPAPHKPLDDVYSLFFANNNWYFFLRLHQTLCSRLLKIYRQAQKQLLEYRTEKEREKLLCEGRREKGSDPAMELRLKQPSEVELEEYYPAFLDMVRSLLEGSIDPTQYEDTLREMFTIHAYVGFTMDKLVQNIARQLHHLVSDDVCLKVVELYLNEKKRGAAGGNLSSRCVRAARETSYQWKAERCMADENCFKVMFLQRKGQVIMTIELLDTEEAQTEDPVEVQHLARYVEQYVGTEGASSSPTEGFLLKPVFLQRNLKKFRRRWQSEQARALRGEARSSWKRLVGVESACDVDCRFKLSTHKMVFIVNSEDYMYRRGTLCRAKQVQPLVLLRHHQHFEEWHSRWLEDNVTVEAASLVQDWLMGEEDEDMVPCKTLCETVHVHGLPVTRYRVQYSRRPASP
# UniProt O95793: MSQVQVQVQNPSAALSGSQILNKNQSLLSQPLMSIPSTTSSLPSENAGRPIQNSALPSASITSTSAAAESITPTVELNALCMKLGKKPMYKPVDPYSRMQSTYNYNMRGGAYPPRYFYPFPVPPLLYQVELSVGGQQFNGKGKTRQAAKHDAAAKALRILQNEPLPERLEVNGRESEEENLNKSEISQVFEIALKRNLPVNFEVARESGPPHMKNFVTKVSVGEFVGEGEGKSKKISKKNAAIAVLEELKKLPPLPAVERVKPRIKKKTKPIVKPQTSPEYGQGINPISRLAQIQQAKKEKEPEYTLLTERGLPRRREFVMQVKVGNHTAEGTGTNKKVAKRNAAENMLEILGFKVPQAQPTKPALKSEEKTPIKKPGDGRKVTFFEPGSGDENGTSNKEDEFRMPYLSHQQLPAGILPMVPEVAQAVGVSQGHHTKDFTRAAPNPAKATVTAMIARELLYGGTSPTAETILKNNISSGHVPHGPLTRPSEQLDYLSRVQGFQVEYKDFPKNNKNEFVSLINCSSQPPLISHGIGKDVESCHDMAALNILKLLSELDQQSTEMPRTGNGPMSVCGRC
# UniProt O75306, whole entry: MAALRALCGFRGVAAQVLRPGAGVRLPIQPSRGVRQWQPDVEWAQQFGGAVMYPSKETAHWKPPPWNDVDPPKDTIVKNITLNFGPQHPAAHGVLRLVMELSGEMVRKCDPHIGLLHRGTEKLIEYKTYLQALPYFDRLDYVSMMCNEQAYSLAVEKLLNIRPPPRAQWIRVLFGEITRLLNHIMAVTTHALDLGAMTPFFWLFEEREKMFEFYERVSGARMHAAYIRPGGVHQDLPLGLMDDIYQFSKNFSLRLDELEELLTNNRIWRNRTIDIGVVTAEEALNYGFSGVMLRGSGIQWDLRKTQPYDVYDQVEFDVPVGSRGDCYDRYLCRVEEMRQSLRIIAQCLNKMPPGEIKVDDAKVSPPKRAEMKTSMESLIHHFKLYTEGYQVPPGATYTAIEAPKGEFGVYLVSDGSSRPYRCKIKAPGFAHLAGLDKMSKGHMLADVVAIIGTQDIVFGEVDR
# UniProt O95671: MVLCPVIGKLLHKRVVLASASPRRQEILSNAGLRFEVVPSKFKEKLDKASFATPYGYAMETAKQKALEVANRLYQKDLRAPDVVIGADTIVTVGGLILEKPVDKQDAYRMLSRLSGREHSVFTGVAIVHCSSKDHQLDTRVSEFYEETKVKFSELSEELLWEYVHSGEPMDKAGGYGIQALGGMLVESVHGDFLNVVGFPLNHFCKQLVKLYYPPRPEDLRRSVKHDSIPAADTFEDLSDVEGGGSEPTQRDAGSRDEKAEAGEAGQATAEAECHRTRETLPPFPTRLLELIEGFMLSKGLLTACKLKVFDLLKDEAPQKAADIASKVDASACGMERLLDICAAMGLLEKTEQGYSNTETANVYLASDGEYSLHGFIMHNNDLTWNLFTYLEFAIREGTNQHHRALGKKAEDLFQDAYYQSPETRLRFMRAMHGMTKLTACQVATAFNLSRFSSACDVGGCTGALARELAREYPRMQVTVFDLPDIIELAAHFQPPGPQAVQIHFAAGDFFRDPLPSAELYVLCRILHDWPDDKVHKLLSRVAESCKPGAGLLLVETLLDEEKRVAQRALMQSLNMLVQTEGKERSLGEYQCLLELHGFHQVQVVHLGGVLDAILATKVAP
# ± gives the standard deviation of the averaged measurements. The entries are a selection whose mix differs from that of the whole data set.
# Compound: Nc1ncnc2c1ncn2[C@@H]1O[C@H](COP(=O)(O)OP(=O)(O)OP(=O)(O)O)[C@@H](O)[C@H]1O [adenosine triphosphate]
# Experiment: NP40-soluble protein abundance relative to vehicle (solubility fold change) (ratio); higher = more soluble protein in presence of ATP
# How it was run: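 Jurkat crude lysate (Dounce-homogenised) was treated with eight concentrations from 0.1 to 10 mM for 10 min at room temperature, then 3 min at 37 °C. It was solubilised with 0.8% NP40 and benzonase (60 min, 4 °C) and ultracentrifuged, and the supernatant was TMT-labelled for LC-MS/MS. Intensities were vsn-normalised, and the value is the fold change against the NP40-processed vehicle per replicate, from three independent experiments.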
Target,NP40-soluble protein abundance (concentration: 1mM),NP40-soluble protein abundance (concentration: 2mM),NP40-soluble protein abundance (concentration: 4mM),NP40-soluble protein abundance (concentration: 6mM),NP40-soluble protein abundance (concentration: 8mM),NP40-soluble protein abundance (concentration: 10mM)
KIF4A (UniProt O95239),0.988 ± 0.031,0.981 ± 0.019,0.9679 ± 0.0069,1.01 ± 0.021,0.964 ± 0.011,0.965 ± 0.0038
UniProt O60711 and related entries,1.003 ± 0.0041,0.994 ± 0.031,1.01 ± 0.041,1.01 ± 0.048,1.01 ± 0.076,0.967 ± 0.018
UniProt O75369-8|O75369-9|O75369 and related entries,0.961 ± 0.025,0.963 ± 0.013,0.93 ± 0.018,0.9754 ± 0.0069,0.926 ± 0.016,0.94 ± 0.027
UniProt O94762 and related entries,1.01 ± 0.047,1.01 ± 0.052,1.02 ± 0.043,1.02 ± 0.036,1.03 ± 0.034,1.04 ± 0.038
SNUPN (UniProt O95149),0.995 ± 0.11,1.01 ± 0.1,0.998 ± 0.046,0.964 ± 0.11,0.998 ± 0.037,0.993 ± 0.038
UniProt O75865 and related entries,0.956 ± 0.086,1.01 ± 0.083,0.947 ± 0.069,0.884 ± 0.092,0.92 ± 0.015,0.931 ± 0.042
UniProt O94901-9|E9PHI4 and related entries,1.06 ± 0.082,1.08 ± 0.13,1.09 ± 0.16,1.04 ± 0.12,1.11 ± 0.17,1.09 ± 0.15
KATNA1 (UniProt O75449),1 ± 0.033,0.983 ± 0.014,0.958 ± 0.017,0.988 ± 0.023,0.982 ± 0.022,0.96 ± 0.046
UniProt O75182 and related entries,1.06 ± 0.11,1.03 ± 0.078,1.02 ± 0.059,1.05 ± 0.11,1.11 ± 0.1,1.09 ± 0.07
UniProt O95793 and related entries,1.02 ± 0.059,1.07 ± 0.036,1.15 ± 0.02,1.23 ± 0.07,1.24 ± 0.052,1.34 ± 0.079
NADK (UniProt O95544),0.934 ± 0.011,0.922 ± 0.082,0.95 ± 0.018,0.916 ± 0.035,0.91 ± 0.041,0.917 ± 0.044
UniProt O75306 and related entries,1.08 ± 0.12,1.02 ± 0.063,1.03 ± 0.065,0.966 ± 0.067,1.04 ± 0.04,1.01 ± 0.052
AGFG2 (UniProt O95081),0.979 ± 0.18,0.945 ± 0.063,0.902 ± 0.075,0.921 ± 0.084,0.953 ± 0.051,0.926 ± 0.1
UniProt O95671 and related entries,1.01 ± 0.072,1.01 ± 0.06,1 ± 0.072,0.99 ± 0.086,0.984 ± 0.062,0.967 ± 0.067
UniProt O60664,0.93 ± 0.036,0.935 ± 0.017,0.927 ± 0.018,0.957 ± 0.014,0.905 ± 0.034,0.868 ± 0.057

# Two entries picked at random from the list so far:
Target,NP40-soluble protein abundance (concentration: 1mM),NP40-soluble protein abundance (concentration: 2mM),NP40-soluble protein abundance (concentration: 4mM),NP40-soluble protein abundance (concentration: 6mM),NP40-soluble protein abundance (concentration: 8mM),NP40-soluble protein abundance (concentration: 10mM)
UniProt O95671 and related entries,1.01 ± 0.072,1.01 ± 0.06,1 ± 0.072,0.99 ± 0.086,0.984 ± 0.062,0.967 ± 0.067
UniProt O75306 and related entries,1.08 ± 0.12,1.02 ± 0.063,1.03 ± 0.065,0.966 ± 0.067,1.04 ± 0.04,1.01 ± 0.052
